{
  "sequences": {"note": "Amino acid sequences for entries named in this document (tags omitted). A change or cut given only in a name is not applied to a line headed by its entry.", "UniProt A9CGG1": "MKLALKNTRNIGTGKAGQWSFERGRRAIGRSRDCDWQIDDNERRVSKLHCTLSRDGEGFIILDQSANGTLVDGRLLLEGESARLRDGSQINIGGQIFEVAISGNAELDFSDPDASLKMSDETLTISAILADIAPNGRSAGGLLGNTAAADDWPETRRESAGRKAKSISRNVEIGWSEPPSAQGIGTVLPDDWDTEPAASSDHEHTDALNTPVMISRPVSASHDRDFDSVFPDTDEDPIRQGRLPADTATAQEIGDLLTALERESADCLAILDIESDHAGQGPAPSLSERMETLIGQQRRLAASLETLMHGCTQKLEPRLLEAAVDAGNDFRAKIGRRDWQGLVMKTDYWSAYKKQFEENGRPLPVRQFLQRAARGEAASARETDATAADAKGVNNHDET"},
  "source": "paper PMC5995506",
  "target": "A. tumefaciens forkhead-associated protein Fha (Atu4335) (A. tumefaciens strain C58) (UniProt A9CGG1)",
  "test": "two-hybrid; yeast two-hybrid, Matchmaker system (Clontech), S. cerevisiae AH109; positive interaction by growth on SD-WLHA medium at 30 °C for at least 2 days",
  "note": "These are yes or no findings as the source states them, for the method shown. A result given as binding can be weak or reduced; the word gives no strength.",
  "data": [
    {"substance": "A. tumefaciens full-length TagF-PppA (Atu4331) (from UniProt Q7CUN2)", "values": [
      {"measurement": "binding", "value": "binds"}
    ]}
  ]
}
